{"source": "PubChem BioAssay AID743121 (NCATS, 2013)", "purpose": "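Knock-downs that sensitise breast cancer cells to camptothecin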 (primary screen)", "system": "MDA-MB-231 cells, a human breast cancer line", "reagent": "single siRNA against human genes, 20 nM siRNA (0.8 pmol per well)", "timing": "120 h (drug added 48 h after transfection, read 72 h later)", "treatment": "camptothecin 20 nM (about EC30) for 72 h; vehicle 0.1% DMSO in parallel plates", "read-out": "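Cell viability by ATP luminescence (CellTiter-Glo) as % of non-targeting siRNA wells, and the log2 ratio of viability without drug over viability with camptothecin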", "direction": "log2 vehicle/camptothecin viability: higher = stronger sensitisation to camptothecin; viability with camptothecin: higher = more viable cells", "units": "viability with camptothecin in % of control", "rule for the call": "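Active genes have an RSA gene-level p-value below 0.001, computed from the ratios of their separate siRNAs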", "note": "This is one part, drawn at random, of about 26,000 reagents. 167 of them (0.63%) count as active. 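Calls are per gene from RSA p-values that are not deposited; an individual active-marked siRNA can sensitise only weakly.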 Reagents against one gene are numbered here. Not all columns of the deposit are shown. No sequences are given here."}
{"Target gene": "CYP11B1", "reagent": 1, "log2 vehicle/camptothecin viability": 0.485, "viability with camptothecin": 7.04, "Outcome": "inactive"}
{"Target gene": "CYP11B1", "reagent": 2, "log2 vehicle/camptothecin viability": -0.185, "viability with camptothecin": 95.9, "Outcome": "inactive"}
{"Target gene": "CYP11B1", "reagent": 3, "log2 vehicle/camptothecin viability": -0.354, "viability with camptothecin": 41.1, "Outcome": "inactive"}
{"Target gene": "CYP11B1", "reagent": 4, "log2 vehicle/camptothecin viability": -0.248, "viability with camptothecin": 64.2, "Outcome": "inactive"}
{"Target gene": "CYP7B1", "reagent": 1, "log2 vehicle/camptothecin viability": 0.188, "viability with camptothecin": 58.8, "Outcome": "inactive"}
{"Target gene": "CYP7B1", "reagent": 2, "log2 vehicle/camptothecin viability": -0.101, "viability with camptothecin": 102, "Outcome": "inactive"}
{"Target gene": "CYP7B1", "reagent": 3, "log2 vehicle/camptothecin viability": 0.0677, "viability with camptothecin": 62.2, "Outcome": "inactive"}
{"Target gene": "CYP7B1", "reagent": 4, "log2 vehicle/camptothecin viability": 0.369, "viability with camptothecin": 67.1, "Outcome": "inactive"}
{"Target gene": "STOML2", "reagent": 1, "log2 vehicle/camptothecin viability": -0.275, "viability with camptothecin": 61.3, "Outcome": "inactive"}
{"Target gene": "STOML2", "reagent": 2, "log2 vehicle/camptothecin viability": -0.111, "viability with camptothecin": 81.3, "Outcome": "inactive"}
{"Target gene": "STOML2", "reagent": 3, "log2 vehicle/camptothecin viability": -0.0686, "viability with camptothecin": 74.2, "Outcome": "inactive"}
{"Target gene": "STOML2", "reagent": 4, "log2 vehicle/camptothecin viability": -0.386, "viability with camptothecin": 108, "Outcome": "inactive"}
{"Target gene": "CACNB3", "reagent": 1, "log2 vehicle/camptothecin viability": -0.707, "viability with camptothecin": 92.4, "Outcome": "inactive"}
{"Target gene": "CACNB3", "reagent": 2, "log2 vehicle/camptothecin viability": 0.408, "viability with camptothecin": 37.1, "Outcome": "inactive"}
{"Target gene": "CACNB3", "reagent": 3, "log2 vehicle/camptothecin viability": -0.526, "viability with camptothecin": 68.4, "Outcome": "inactive"}

Next part (2 carried over from the part before).
{"Target gene": "CACNB3", "reagent": 2, "log2 vehicle/camptothecin viability": 0.408, "viability with camptothecin": 37.1, "Outcome": "inactive"}
{"Target gene": "CACNB3", "reagent": 3, "log2 vehicle/camptothecin viability": -0.526, "viability with camptothecin": 68.4, "Outcome": "inactive"}
{"Target gene": "RAB17", "reagent": 1, "log2 vehicle/camptothecin viability": -0.21, "viability with camptothecin": 34.8, "Outcome": "inactive"}
{"Target gene": "RAB17", "reagent": 2, "log2 vehicle/camptothecin viability": -0.0635, "viability with camptothecin": 80.6, "Outcome": "inactive"}
{"Target gene": "RAB17", "reagent": 3, "log2 vehicle/camptothecin viability": -0.317, "viability with camptothecin": 46.3, "Outcome": "inactive"}
{"Target gene": "RAB17", "reagent": 4, "log2 vehicle/camptothecin viability": -0.519, "viability with camptothecin": 41.1, "Outcome": "inactive"}
{"Target gene": "HCAR1", "reagent": 1, "log2 vehicle/camptothecin viability": -0.176, "viability with camptothecin": 101, "Outcome": "inactive"}
{"Target gene": "HCAR1", "reagent": 2, "log2 vehicle/camptothecin viability": -0.554, "viability with camptothecin": 86.1, "Outcome": "inactive"}
{"Target gene": "HCAR1", "reagent": 3, "log2 vehicle/camptothecin viability": -0.264, "viability with camptothecin": 71.4, "Outcome": "inactive"}
{"Target gene": "HCAR1", "reagent": 4, "log2 vehicle/camptothecin viability": -0.271, "viability with camptothecin": 33.1, "Outcome": "inactive"}
{"Target gene": "GRN", "reagent": 1, "log2 vehicle/camptothecin viability": -0.0593, "viability with camptothecin": 102, "Outcome": "inactive"}
{"Target gene": "GRN", "reagent": 2, "log2 vehicle/camptothecin viability": 0.835, "viability with camptothecin": 12.3, "Outcome": "inactive"}
{"Target gene": "GRN", "reagent": 3, "log2 vehicle/camptothecin viability": 0.289, "viability with camptothecin": 77.6, "Outcome": "inactive"}
{"Target gene": "GRN", "reagent": 4, "log2 vehicle/camptothecin viability": 0.25, "viability with camptothecin": 1.51, "Outcome": "inactive"}
{"Target gene": "KLC2", "reagent": 1, "log2 vehicle/camptothecin viability": -0.283, "viability with camptothecin": 79, "Outcome": "inactive"}
{"Target gene": "KLC2", "reagent": 2, "log2 vehicle/camptothecin viability": -0.115, "viability with camptothecin": 40.7, "Outcome": "inactive"}
{"Target gene": "KLC2", "reagent": 3, "log2 vehicle/camptothecin viability": -0.512, "viability with camptothecin": 23.6, "Outcome": "inactive"}
{"Target gene": "KDM5D", "reagent": 1, "log2 vehicle/camptothecin viability": -0.395, "viability with camptothecin": 48.5, "Outcome": "inactive"}
{"Target gene": "KDM5D", "reagent": 2, "log2 vehicle/camptothecin viability": 0.124, "viability with camptothecin": 81, "Outcome": "inactive"}
{"Target gene": "KDM5D", "reagent": 3, "log2 vehicle/camptothecin viability": -0.027, "viability with camptothecin": 49.3, "Outcome": "inactive"}
{"Target gene": "KDM5D", "reagent": 4, "log2 vehicle/camptothecin viability": -0.416, "viability with camptothecin": 112, "Outcome": "inactive"}
{"Target gene": "GTF2H4", "reagent": 1, "log2 vehicle/camptothecin viability": -0.458, "viability with camptothecin": 60.4, "Outcome": "inactive"}
{"Target gene": "GTF2H4", "reagent": 2, "log2 vehicle/camptothecin viability": -0.387, "viability with camptothecin": 74.1, "Outcome": "inactive"}
{"Target gene": "GTF2H4", "reagent": 3, "log2 vehicle/camptothecin viability": 0.00441, "viability with camptothecin": 100, "Outcome": "inactive"}
{"Target gene": "GTF2H4", "reagent": 4, "log2 vehicle/camptothecin viability": 0.855, "viability with camptothecin": 17.4, "Outcome": "inactive"}
{"Target gene": "SUCNR1", "reagent": 1, "log2 vehicle/camptothecin viability": -0.151, "viability with camptothecin": 26.9, "Outcome": "inactive"}
{"Target gene": "SUCNR1", "reagent": 2, "log2 vehicle/camptothecin viability": -0.15, "viability with camptothecin": 75.9, "Outcome": "inactive"}
{"Target gene": "SUCNR1", "reagent": 3, "log2 vehicle/camptothecin viability": -0.111, "viability with camptothecin": 78.1, "Outcome": "inactive"}
{"Target gene": "SUCNR1", "reagent": 4, "log2 vehicle/camptothecin viability": -0.41, "viability with camptothecin": 127, "Outcome": "inactive"}
{"Target gene": "CRAMP1", "reagent": 1, "log2 vehicle/camptothecin viability": 0.0141, "viability with camptothecin": 88.7, "Outcome": "inactive"}
{"Target gene": "CRAMP1", "reagent": 2, "log2 vehicle/camptothecin viability": -1.48, "viability with camptothecin": 12.5, "Outcome": "inactive"}
{"Target gene": "CRAMP1", "reagent": 3, "log2 vehicle/camptothecin viability": -0.105, "viability with camptothecin": 45.3, "Outcome": "inactive"}
{"Target gene": "CRAMP1", "reagent": 4, "log2 vehicle/camptothecin viability": -0.389, "viability with camptothecin": 58.3, "Outcome": "inactive"}
